Measurements taken from patent US20220041582A1, “ISOXAZOLINE COMPOUNDS FOR CONTROLLING INVERTEBRATE PESTS” (FMC Corporation, priority 2018, published 2022).
Some of these results come from one statement about several compounds together.

Legend:
Type in all cases: in vivo
[1] = system: diamondback moth (Plutella xylostella (L.)); assay: Test A: control of diamondback moth on mustard plant, foliar spray; settings: 6 days, 40% or less feeding damage and/or 100% mortality
[2] = system: fall armyworm (Spodoptera frugiperda (J. E. Smith)); assay: Test B: control of fall armyworm on corn plant, foliar spray; settings: 6 days, 40% or less feeding damage and/or 100% mortality
[3] = system: potato leafhopper (Empoasca fabae (Harris)); assay: Test D: control of potato leafhopper through contact and/or systemic means; settings: 6 days
Method: (§1) Formulation and Spray Methodology for Tests A-H
(§2) Test compounds were formulated using a solution containing 10% acetone, 90% water and 300 ppm Activator 90® non-ionic surfactant (Loveland Products, Loveland, Colo., USA). The formulated compounds were applied in 1 mL of liquid through an atomizer nozzle positioned 1.27 cm (0.5 inches) above the top of each test unit. Test compounds were sprayed at the rates indicated, and each test was replicated three times.
[…] White sand was added to the top of the soil, and one of the primary leaves was excised prior to application of the test compound.
Test compounds were formulated and sprayed at 250, 50 and 10 ppm. After spraying of the formulated test compound, the test units were allowed to dry for 1 hour before they were post-infested with 5 potato leafhoppers (18-to-21-day-old adults). A black, screened cap was placed on the top of the test unit, and the test units were held for 6 days in a growth chamber at 20° C. and 70% relative humidity. Each test unit was then visually assessed for insect mortality.

[4] = system: green peach aphid (Myzus persicae (Sulzer)); assay: Test E: control of green peach aphid through contact and/or systemic means; settings: 6 days
Method: as §1, §2
For evaluating control of green peach aphid (Myzus persicae (Sulzer)) through contact and/or systemic means, the test unit consisted of a small open container with a 12-15-day-old radish plant inside. This was pre-infested by placing on a leaf of the test plant 30-40 aphids on a piece of leaf excised from a culture plant (cut-leaf method). The aphids moved onto the test plant as the leaf piece desiccated. After pre-infestation, the soil of the test unit was covered with a layer of sand.
Test compounds were formulated and sprayed at 250, 50 and 10 ppm. After spraying of the formulated test compound, each test unit was allowed to dry for 1 hour and then a black, screened cap was placed on top. The test units were held for 6 days in a growth chamber at 19-21° C. and 50-70% relative humidity. Each test unit was then visually assessed for insect mortality.

[5] = system: cotton melon aphid (Aphis gossypii (Glover)); assay: Test F: control of cotton melon aphid through contact and/or systemic means; settings: 6 days
Method: as §1, §2
[…] This was pre-infested with 30-40 insects on a piece of leaf according to the cut-leaf method, and the soil of the test unit was covered with a layer of sand.
Test compounds were formulated and sprayed at 250, 50 and 10 ppm. After spraying, the test units were maintained in a growth chamber for 6 days at 19° C. and 70% relative humidity. Each test unit was then visually assessed for insect mortality.

[6] = system: sweetpotato whitefly (Bemisia tabaci (Gennadius)); assay: Test G: control of sweetpotato whitefly through contact and/or systemic means; settings: 13 days
Method: as §1, §2
For evaluating control of the sweetpotato whitefly (Bemisia tabaci (Gennadius)) through contact and/or systemic means, the test unit consisted of a small open container with a 12-14-day-old cotton plant inside. Prior to the spray application, both cotyledons were removed from the plant, leaving one true leaf for the assay. Adult whiteflies were allowed to lay eggs on the plant and then were removed from the test unit. Cotton plants infested with at least 15 eggs were submitted to the test for spraying.
Test compounds were formulated and sprayed at 250, 50 and 10 ppm. After spraying, the test units were allowed to dry for 1 hour. The cylinders were then removed, and the units were taken to a growth chamber and held for 13 days at 28° C. and 50-70% relative humidity. Each test unit was then visually assessed for insect mortality.

[7] = system: Western Flower Thrips (Frankliniellla occidentalis (Pergande)); assay: Test H: control of Western Flower Thrips through contact and/or systemic means; settings: 6 days, 30% or less plant damage and/or 100% mortality

Compound	control efficacy: feeding damage (and/or 100% mortality) ([1]; 0.4 ppm spray)	control efficacy: feeding damage (and/or 100% mortality) ([1]; 2 ppm spray)	control efficacy: feeding damage (and/or 100% mortality) ([2]; 0.4 ppm spray)	control efficacy: feeding damage (and/or 100% mortality) ([2]; 2 ppm spray)	mortality ([3]; 10 ppm spray)	mortality ([3]; 50 ppm spray)	mortality ([4]; 10 ppm spray)	mortality ([4]; 50 ppm spray)	mortality ([5]; 10 ppm spray)	mortality ([5]; 50 ppm spray)	mortality ([6]; 10 ppm spray)	mortality ([6]; 50 ppm spray)	control efficacy: plant damage (and/or 100% mortality) ([7]; 0.4 ppm spray)	control efficacy: plant damage (and/or 100% mortality) ([7]; 2 ppm spray)
CC(NC(=O)c1ccc(C2=NOC(c3cc(Cl)c(F)c(Cl)c3)(C(F)(F)F)C2)c2ccncc12)C1CC1 (stereo not shown) [Compound 61]	≤ 40%	≤ 40%	≤ 40%	≤ 40%	at least 80%	at least 80%	at least 80%	at least 80%	at least 80%	at least 80%	at least 50%	at least 50%	≤ 30%	≤ 30%
O=C(NCc1ncccn1)c1ccc(C2=NOC(c3cc(Cl)cc(Cl)c3)(C(F)(F)F)C2)c2ccncc12 (stereo not shown) [Compound 67]	≤ 40%	≤ 40%	–	≤ 40%	–	–	–	at least 80%	at least 80%	at least 80%	–	–	≤ 30%	≤ 30%
CC(C#N)NC(=O)c1ccc(C2=NOC(c3ccc(F)c(C(F)(F)F)c3)(C(F)(F)F)C2)c2ccncc12 (stereo not shown) [Compound 79]	≤ 40%	≤ 40%	–	–	–	–	–	–	–	at least 80%	–	at least 50%	≤ 30%	≤ 30%
CC(C)NC(=O)c1ccc(C2=NOC(c3cc(Cl)cc(C(F)(F)F)c3)(C(F)(F)F)C2)c2ccncc12 (stereo not shown) [Compound 85]	≤ 40%	≤ 40%	≤ 40%	≤ 40%	–	–	–	at least 80%	at least 80%	at least 80%	–	–	≤ 30%	≤ 30%
CC(C)NC(=O)c1ccc(C2=NOC(c3cccc(C(F)(F)F)c3)(C(F)(F)F)C2)c2ccncc12 (stereo not shown) [Compound 87]	≤ 40%	≤ 40%	–	≤ 40%	–	–	–	at least 80%	–	at least 80%	–	–	–	≤ 30%
CCCNC(=O)c1ccc(C2=NOC(c3cc(Cl)cc(C(F)(F)F)c3)(C(F)(F)F)C2)c2ccncc12 (stereo not shown) [Compound 89]	≤ 40%	≤ 40%	≤ 40%	≤ 40%	–	–	at least 80%	at least 80%	at least 80%	at least 80%	–	–	≤ 30%	≤ 30%
C=CCNC(=O)c1ccc(C2=NOC(c3cc(Cl)cc(C(F)(F)F)c3)(C(F)(F)F)C2)c2ccncc12 (stereo not shown) [Compound 91]	≤ 40%	≤ 40%	≤ 40%	≤ 40%	–	–	–	at least 80%	–	at least 80%	–	–	≤ 30%	≤ 30%
